Laboratory results taken from the supplement of paper PMC10849652.
The other results are listed elsewhere or left out.

Amino acid sequences for entries named in this document (tags omitted). A change or cut given only in a name is not applied to a line headed by its entry.
UniProt O60704: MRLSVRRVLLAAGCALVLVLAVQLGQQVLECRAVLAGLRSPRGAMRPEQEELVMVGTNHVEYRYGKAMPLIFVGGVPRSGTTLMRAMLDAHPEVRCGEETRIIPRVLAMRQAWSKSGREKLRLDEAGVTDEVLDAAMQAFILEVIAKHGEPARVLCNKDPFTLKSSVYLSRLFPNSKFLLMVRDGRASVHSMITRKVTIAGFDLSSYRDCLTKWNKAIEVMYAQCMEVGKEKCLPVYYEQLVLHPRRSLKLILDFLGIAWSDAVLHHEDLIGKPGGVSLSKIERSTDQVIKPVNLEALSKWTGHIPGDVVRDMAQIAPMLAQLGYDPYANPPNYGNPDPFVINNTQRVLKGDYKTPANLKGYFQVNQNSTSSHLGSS
UniProt Q02880: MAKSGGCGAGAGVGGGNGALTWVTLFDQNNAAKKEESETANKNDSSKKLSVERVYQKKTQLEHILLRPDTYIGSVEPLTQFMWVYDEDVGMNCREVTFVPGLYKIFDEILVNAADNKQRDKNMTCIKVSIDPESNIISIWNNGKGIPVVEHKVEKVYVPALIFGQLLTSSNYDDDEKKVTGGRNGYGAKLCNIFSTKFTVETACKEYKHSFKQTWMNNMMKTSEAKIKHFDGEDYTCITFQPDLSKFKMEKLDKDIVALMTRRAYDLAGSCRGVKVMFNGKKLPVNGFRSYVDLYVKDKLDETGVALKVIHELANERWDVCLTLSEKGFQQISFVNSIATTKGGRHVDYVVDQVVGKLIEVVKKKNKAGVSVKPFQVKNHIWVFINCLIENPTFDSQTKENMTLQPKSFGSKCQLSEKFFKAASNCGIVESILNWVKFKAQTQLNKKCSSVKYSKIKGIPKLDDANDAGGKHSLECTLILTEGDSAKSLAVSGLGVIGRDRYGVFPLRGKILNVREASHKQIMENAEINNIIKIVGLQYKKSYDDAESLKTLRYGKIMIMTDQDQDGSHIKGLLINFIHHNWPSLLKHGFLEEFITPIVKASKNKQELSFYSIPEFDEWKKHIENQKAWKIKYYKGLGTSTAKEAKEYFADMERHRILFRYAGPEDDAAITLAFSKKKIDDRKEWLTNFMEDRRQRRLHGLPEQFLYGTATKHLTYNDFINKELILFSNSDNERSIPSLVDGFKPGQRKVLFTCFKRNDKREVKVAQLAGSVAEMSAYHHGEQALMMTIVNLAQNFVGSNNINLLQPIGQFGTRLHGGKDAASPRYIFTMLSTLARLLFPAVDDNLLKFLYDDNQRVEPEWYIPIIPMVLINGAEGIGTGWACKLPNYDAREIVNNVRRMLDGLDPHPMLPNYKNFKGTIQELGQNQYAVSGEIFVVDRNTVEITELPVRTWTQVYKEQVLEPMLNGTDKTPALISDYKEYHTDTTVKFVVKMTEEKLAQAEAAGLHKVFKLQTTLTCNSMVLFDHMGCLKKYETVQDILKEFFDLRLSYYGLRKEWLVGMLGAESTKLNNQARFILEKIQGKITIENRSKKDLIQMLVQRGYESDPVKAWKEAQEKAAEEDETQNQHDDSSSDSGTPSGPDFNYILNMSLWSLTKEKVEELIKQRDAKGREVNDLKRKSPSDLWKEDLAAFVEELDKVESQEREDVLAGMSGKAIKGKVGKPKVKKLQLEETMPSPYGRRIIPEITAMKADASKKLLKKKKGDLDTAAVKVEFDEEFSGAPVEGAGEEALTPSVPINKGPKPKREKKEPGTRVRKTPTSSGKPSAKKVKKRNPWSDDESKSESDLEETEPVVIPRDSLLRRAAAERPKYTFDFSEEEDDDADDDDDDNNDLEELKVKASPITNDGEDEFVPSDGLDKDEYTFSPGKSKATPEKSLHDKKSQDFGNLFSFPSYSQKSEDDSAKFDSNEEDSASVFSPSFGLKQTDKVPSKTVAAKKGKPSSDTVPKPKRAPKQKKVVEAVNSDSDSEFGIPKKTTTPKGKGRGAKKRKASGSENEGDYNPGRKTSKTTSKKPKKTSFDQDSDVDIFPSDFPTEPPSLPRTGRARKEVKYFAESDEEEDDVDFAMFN
UniProt P06753, whole entry, looked up: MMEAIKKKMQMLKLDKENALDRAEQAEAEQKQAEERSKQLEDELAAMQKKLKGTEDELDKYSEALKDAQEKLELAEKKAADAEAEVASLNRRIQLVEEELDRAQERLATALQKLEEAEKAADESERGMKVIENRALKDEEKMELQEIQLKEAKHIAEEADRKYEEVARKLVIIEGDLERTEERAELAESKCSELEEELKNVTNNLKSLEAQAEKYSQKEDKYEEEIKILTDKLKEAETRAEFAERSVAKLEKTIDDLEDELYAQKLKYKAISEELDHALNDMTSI
UniProt P67936, whole entry, looked up: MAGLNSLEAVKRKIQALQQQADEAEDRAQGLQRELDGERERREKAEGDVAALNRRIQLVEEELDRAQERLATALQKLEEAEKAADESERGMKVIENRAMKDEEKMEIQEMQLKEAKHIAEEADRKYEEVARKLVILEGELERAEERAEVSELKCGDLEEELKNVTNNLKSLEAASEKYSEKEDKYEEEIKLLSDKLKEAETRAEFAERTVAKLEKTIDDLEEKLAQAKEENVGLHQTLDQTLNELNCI
UniProt P60174, whole entry, looked up: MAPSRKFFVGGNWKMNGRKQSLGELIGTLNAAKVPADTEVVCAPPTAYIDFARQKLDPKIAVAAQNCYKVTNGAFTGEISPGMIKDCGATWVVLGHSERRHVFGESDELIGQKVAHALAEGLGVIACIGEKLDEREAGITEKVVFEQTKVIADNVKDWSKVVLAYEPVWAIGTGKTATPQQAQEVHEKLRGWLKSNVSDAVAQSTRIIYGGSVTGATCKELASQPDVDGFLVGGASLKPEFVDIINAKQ
UniProt Q96K49: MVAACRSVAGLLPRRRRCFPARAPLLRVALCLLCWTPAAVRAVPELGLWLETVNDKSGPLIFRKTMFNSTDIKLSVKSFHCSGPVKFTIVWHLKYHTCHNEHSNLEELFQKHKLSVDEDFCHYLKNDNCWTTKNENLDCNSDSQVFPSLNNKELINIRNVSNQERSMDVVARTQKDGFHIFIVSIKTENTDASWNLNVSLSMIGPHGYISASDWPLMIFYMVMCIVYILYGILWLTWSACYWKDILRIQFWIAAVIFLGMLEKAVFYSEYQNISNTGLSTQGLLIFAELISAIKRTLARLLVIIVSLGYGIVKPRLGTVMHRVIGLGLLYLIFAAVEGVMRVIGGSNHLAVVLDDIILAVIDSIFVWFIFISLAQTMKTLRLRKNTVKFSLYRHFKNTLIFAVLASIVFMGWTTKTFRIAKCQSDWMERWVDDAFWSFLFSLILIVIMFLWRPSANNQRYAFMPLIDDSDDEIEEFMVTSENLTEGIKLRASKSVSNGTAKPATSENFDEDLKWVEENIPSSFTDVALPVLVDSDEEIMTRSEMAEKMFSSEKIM
UniProt P20333, whole entry, looked up: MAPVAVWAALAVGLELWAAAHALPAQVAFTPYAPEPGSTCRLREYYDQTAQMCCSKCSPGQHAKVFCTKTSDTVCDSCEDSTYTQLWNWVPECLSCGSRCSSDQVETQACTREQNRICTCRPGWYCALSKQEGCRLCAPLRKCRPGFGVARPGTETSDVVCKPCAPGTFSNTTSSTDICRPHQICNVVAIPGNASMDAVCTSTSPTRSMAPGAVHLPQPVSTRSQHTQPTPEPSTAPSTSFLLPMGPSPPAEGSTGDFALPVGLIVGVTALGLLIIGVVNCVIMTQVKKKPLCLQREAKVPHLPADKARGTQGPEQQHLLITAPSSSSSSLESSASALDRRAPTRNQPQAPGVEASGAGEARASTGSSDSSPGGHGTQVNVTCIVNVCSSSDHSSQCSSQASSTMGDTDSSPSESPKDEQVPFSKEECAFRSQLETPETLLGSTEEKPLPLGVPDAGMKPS
UniProt Q96HA7: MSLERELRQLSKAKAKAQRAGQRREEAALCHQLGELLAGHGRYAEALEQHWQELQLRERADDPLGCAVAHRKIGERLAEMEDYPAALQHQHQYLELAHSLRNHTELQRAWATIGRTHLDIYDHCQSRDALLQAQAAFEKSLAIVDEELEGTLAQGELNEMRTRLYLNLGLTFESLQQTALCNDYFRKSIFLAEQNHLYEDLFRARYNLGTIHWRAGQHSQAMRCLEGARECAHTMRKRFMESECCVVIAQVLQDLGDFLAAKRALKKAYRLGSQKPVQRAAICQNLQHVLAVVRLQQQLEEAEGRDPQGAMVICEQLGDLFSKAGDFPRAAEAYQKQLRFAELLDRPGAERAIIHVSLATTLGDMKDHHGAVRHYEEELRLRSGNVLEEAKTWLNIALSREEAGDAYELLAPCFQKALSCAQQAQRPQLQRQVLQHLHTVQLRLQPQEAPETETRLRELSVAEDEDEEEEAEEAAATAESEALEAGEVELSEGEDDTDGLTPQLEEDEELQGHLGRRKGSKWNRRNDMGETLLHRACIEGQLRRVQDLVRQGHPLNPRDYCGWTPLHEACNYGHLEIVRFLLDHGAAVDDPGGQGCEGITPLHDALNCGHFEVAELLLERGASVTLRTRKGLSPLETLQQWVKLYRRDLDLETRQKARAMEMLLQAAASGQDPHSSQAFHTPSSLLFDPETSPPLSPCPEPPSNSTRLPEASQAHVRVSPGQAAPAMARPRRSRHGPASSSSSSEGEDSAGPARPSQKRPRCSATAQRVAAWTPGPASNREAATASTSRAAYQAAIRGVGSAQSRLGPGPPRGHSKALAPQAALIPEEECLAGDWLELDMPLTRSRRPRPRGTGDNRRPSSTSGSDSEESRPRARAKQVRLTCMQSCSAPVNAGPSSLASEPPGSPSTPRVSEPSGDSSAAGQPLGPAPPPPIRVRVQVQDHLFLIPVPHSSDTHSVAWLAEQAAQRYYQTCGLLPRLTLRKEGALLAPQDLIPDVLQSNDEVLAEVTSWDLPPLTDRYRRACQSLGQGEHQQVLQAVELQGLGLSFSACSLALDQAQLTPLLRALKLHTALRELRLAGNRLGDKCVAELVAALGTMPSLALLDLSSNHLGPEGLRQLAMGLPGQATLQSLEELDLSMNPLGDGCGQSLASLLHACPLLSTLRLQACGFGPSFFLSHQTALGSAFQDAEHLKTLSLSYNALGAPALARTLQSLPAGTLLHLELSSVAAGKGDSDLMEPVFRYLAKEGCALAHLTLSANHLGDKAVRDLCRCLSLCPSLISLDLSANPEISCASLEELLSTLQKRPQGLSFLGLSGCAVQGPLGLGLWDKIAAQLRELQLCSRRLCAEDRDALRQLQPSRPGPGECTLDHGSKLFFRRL
UniProt P28289: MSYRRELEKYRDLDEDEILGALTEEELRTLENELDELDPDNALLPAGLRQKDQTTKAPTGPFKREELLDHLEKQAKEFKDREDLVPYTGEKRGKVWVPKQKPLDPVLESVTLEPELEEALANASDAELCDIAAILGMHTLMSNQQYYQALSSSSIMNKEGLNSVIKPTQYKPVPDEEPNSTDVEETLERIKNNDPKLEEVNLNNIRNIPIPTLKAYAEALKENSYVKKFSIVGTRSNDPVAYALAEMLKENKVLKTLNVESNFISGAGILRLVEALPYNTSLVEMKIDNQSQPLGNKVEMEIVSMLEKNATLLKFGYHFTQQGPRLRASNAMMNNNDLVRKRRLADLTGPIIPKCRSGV
UniProt P11387: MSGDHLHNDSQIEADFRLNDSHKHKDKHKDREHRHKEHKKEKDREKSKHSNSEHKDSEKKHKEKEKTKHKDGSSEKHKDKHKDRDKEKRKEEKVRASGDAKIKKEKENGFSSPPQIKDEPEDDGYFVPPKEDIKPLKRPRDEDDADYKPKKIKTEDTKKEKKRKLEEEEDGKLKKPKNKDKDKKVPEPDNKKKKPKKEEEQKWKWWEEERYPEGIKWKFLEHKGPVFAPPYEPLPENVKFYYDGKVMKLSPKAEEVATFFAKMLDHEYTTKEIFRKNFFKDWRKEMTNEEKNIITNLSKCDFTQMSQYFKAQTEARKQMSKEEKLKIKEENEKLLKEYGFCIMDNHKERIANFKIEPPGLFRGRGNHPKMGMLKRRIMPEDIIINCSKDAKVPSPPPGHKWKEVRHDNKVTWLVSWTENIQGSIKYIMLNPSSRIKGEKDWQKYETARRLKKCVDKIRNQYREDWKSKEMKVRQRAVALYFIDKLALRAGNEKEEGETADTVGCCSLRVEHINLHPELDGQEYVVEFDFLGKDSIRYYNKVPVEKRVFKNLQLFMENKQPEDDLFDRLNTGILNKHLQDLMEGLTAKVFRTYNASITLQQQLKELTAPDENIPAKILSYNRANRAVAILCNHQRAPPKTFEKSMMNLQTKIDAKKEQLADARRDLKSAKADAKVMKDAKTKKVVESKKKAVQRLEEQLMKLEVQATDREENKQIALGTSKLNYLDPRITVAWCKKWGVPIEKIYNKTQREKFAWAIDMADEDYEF
UniProt Q86XT9, whole entry, looked up: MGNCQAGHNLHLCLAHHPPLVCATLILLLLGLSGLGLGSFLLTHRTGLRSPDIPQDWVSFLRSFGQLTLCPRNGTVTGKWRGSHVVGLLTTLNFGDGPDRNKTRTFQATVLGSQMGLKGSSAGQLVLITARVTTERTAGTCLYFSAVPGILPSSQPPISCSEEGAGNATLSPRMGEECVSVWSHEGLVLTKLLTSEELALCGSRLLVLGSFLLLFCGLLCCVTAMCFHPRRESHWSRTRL

These targets were tested with CNC(=O)c1ccc(Nc2ncc(C(F)(F)F)c(NCc3nccnc3N(C)S(C)(=O)=O)n2)cc1 [defactinib] (assay: log2 fold change, soluble protein after heating vs DMSO (PISA); higher = thermal stabilisation; K562 lysate, 10 uM; active = over 0.2 and 3.5 SD of the protein, either way, in both replicates (recomputed)).
Outline: (§1)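 Pellets of K562 cells were dounce-homogenised in PBS pH 7.4 with 1 mM MgCl2, and the crude extract was held at 1 mg/mL protein for a 30 min treatment with 10 μM compound. Aliquots were heated for 3 min over 48°C-58°C and pooled before NP-40 was added to 0.5% at 4°C. The supernatant from 21,000xg for 90 min was quantified by TMTpro 16plex LC-MS/MS with channel sums equalised. Values are reported from duplicates as log-two fold change in thermal stability relative to solvent controls.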

| Target | log2 fold change |
| --- | --- |
| TPST2 (UniProt O60704) | inactive: -0.038 |
| TOP2B isoform 2 (UniProt Q02880) | inactive: 0.031 |
| TPM3 (UniProt P06753) | inactive: 0.044 |
| TPM4 isoform 2 (UniProt P67936) | inactive: -0.059 |
| TPI1 (UniProt P60174) | inactive: 0.023 |
| TMEM87B (UniProt Q96K49) | inactive: -0.032 |
| TNFRSF1B (UniProt P20333) | inactive: 0.12 |
| TMEM245 (UniProt Q9H330) | inactive: 0.054 |
| TONSL (UniProt Q96HA7) | inactive: 0.05 |
| TMOD1 (UniProt P28289) | inactive: 0.046 |

What follows are targets tested with CNc1nc(-c2ccc3c(N)n[nH]c3c2)cc(N2C[C@@H](C(=O)NC3CCCCC3)CC[C@H]2C)n1 in the same assay as above.
Outline: as §1

| Target | log2 fold change |
| --- | --- |
| TMX3 (UniProt Q96JJ7) | inactive: 0.009 |
| TOR3A (UniProt Q9H497) | inactive: 0.019 |
| TMEM63B (UniProt Q5T3F8) | inactive: -0.029 |
| TPP2 (UniProt P29144) | inactive: -0.03 |
| TPP1 (UniProt O14773) | inactive: -0.003 |
| TNIK isoform 4 (UniProt Q9UKE5) | inactive: -0.04 |
| TPD52L2 isoform 7 (UniProt O43399) | inactive: 0.086 |
| TMEM38B (UniProt Q9NVV0) | inactive: 0.085 |
| TRA2A (UniProt Q13595) | inactive: 0.031 |
| TOMM22 (UniProt Q9NS69) | inactive: 0.019 |
| TPM1 isoform 4 (UniProt P09493) | inactive: -0.12 |
| TOM1 isoform 2 (UniProt O60784) | inactive: 0.047 |
| TMOD3 (UniProt Q9NYL9) | inactive: 0.057 |
| TMEM97 (UniProt Q5BJF2) | inactive: 0.091 |
| TMEM68 (UniProt Q96MH6) | inactive: 0.029 |
| TPM3 isoform 2 (UniProt P06753) | inactive: -0.144 |
| TPX2 (UniProt Q9ULW0) | inactive: 0.045 |

| Target | log2 fold change |
| --- | --- |
| TOP1 (UniProt P11387) | inactive: -0.037 |
| TNIP1 (UniProt Q15025) | inactive: 0.009 |
| TOMM70 (UniProt O94826) | inactive: -0.011 |
| TMEM219 (UniProt Q86XT9) | inactive: 0.098 |
| TPMT (UniProt P51580) | inactive: -0.111 |
| TP53I3 (UniProt Q53FA7) | inactive: 0.005 |
| TPST2 (UniProt O60704) | inactive: -0.02 |
| TOP2B isoform 2 (UniProt Q02880) | inactive: 0.009 |
| TPM3 (UniProt P06753) | inactive: -0.003 |
| TPM4 isoform 2 (UniProt P67936) | inactive: 0.028 |
| TPI1 (UniProt P60174) | inactive: 0.074 |
| TMEM87B (UniProt Q96K49) | inactive: -0.045 |
| TNFRSF1B (UniProt P20333) | inactive: 0.134 |
| TMEM245 (UniProt Q9H330) | inactive: -0.1 |
| TONSL (UniProt Q96HA7) | inactive: -0.03 |
| TMOD1 (UniProt P28289) | inactive: -0.009 |

The targets below were run with COC(=O)N[C@@H](C)CNc1nccc(-c2cn(C(C)C)nc2-c2cc(Cl)cc(NS(C)(=O)=O)c2F)n1 [encorafenib] in the same assay as above.
Outline: as §1

| Target | log2 fold change |
| --- | --- |
| TMX3 (UniProt Q96JJ7) | inactive: 0.02 |
| TOR3A (UniProt Q9H497) | inactive: 0.006 |
| TMEM63B (UniProt Q5T3F8) | inactive: 0.022 |
| TPP2 (UniProt P29144) | inactive: 0 |
| TPP1 (UniProt O14773) | inactive: 0.004 |
| TNIK isoform 4 (UniProt Q9UKE5) | inactive: -0.026 |
| TPD52L2 isoform 7 (UniProt O43399) | inactive: -0.026 |
| TMEM38B (UniProt Q9NVV0) | inactive: 0.016 |
| TRA2A (UniProt Q13595) | inactive: -0.017 |
| TOMM22 (UniProt Q9NS69) | inactive: 0.024 |
| TPM1 isoform 4 (UniProt P09493) | inactive: 0.02 |
| TOM1 isoform 2 (UniProt O60784) | inactive: 0.03 |
| TMOD3 (UniProt Q9NYL9) | inactive: 0.029 |
| TMEM97 (UniProt Q5BJF2) | inactive: -0.008 |
| TMEM68 (UniProt Q96MH6) | inactive: 0.05 |
| TPM3 isoform 2 (UniProt P06753) | inactive: 0 |
| TPX2 (UniProt Q9ULW0) | inactive: 0.041 |

| Target | log2 fold change |
| --- | --- |
| TOP1 (UniProt P11387) | inactive: 0.027 |
| TNIP1 (UniProt Q15025) | inactive: 0.018 |
| TOMM70 (UniProt O94826) | inactive: 0.061 |
| TMEM219 (UniProt Q86XT9) | inactive: 0.195 |
| TPMT (UniProt P51580) | inactive: -0.016 |
| TP53I3 (UniProt Q53FA7) | inactive: 0.031 |
| TPST2 (UniProt O60704) | inactive: 0.03 |
| TOP2B isoform 2 (UniProt Q02880) | inactive: 0.021 |
| TPM3 (UniProt P06753) | inactive: -0.048 |
| TPM4 isoform 2 (UniProt P67936) | inactive: -0.004 |
| TPI1 (UniProt P60174) | inactive: -0.029 |
| TMEM87B (UniProt Q96K49) | inactive: -0.055 |
| TNFRSF1B (UniProt P20333) | inactive: 0.111 |
| TMEM245 (UniProt Q9H330) | inactive: 0.044 |
| TONSL (UniProt Q96HA7) | inactive: 0.063 |
| TMOD1 (UniProt P28289) | inactive: -0.004 |
